{
  "source": "patent US20240337647A1",
  "about": "“IMPROVED METHODS FOR IDENTIFICATION OF FUNCTIONAL CELL STATES” (priority 2021, published 2024)",
  "test_system": "biomolecular targets known to be associated with common negative side effects of pharmaceuticals in humans",
  "assay": "In vitro secondary pharmacology panels, all targets of the two panels (31 dose-response + 78 single concentration)",
  "assay_type": "biochemical",
  "conditions": "percentage of targets hit among all targets tested in the two secondary pharmacology panels",
  "method": "The purpose of this study was to assess the toxicity risk estimation provided by the Cell Health Screen relative to information from panels of in vitro pharmacology assays that were also designed to detect toxicity risk during pharmaceutical development. This study was performed with outside collaborators who have expertise in the use of the in vitro pharmacology assays. These in vitro assay panels detect whether chemical compounds directly interact with biomolecular targets known to be associated with toxic side effects in humans (mostly enzymes, cell surface receptors, and other proteins that participate in signaling pathways) (Pottel et al., 2020). […] As such, the interpretation process is somewhat subjective. […] This is a quantitative toxicity risk estimation relative to a training set of compounds used to train the ML classifier. […]\nFor a detailed description of our collaborators' in vitro pharmacology assay panels, please see the publication by Pottel et al. (Pottel et al., 2020). […] In one assay panel, chemical compound interaction is assessed for 31 biomolecular targets in a dose-response fashion, which assesses compound-target interaction strength expressed as an IC50 and an activity range (unless no interaction happens). […]",
  "note": "For at least one compound, name, drawing or mass did not settle the structure.",
  "data": [
    {"smiles": "CCCCCCCCCCCCCCCC[n+]1ccccc1", "note": "[Cetylpyridinium chloride, Cetylpyridinium chloride monohydrate]", "values": [
      {"measurement": "Overall target hit rate", "value": 64, "unit": "%"}
    ]}
  ]
}
